According to the supplement of paper PMC8728848:
The list shows a part of the results.

Experiments:
Assay in all cases: glycan array binding signal (z-score within array); higher = stronger binding
Conditions in all cases: glycan notation: IUPAC condensed, linker removed
GlcNAc(b1-3)Gal(b1-4)Glc = target: GlcNAc(b1-3)Gal(b1-4)Glc
Summary of the method: (§1)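 From the Consortium for Functional Glycomics database, 3228 arrays were curated, keeping only those whose protein sequence was available. Binding is given as a within-array Z-score averaged across arrays sharing a protein sequence and across linkers. Negative Z-scores can be read as non-binding.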

[1] = target: GlcNAc(b1-3)Gal(b1-4)GlcNAc
Summary of the method: as §1

[2] = target: GlcNAc(b1-3)Gal(b1-4)GlcNAc(b1-2)Man(a1-3)[GlcNAc(b1-3)Gal(b1-4)GlcNAc(b1-2)Man(a1-6)]Man(b1-4)GlcNAc(b1-4)GlcNAc
Summary of the method: as §1

[3] = target: GlcNAc(b1-3)Gal(b1-4)GlcNAc(b1-2)Man(a1-3)[GlcNAc(b1-3)Gal(b1-4)GlcNAc(b1-2)Man(a1-6)]Man(b1-4)GlcNAc(b1-4)[Fuc(a1-6)]GlcNAc
Summary of the method: as §1

[4] = target: GlcNAc(b1-3)Gal(b1-4)GlcNAc(b1-2)[GlcNAc(b1-3)Gal(b1-4)GlcNAc(b1-6)]Man(a1-6)[GlcNAc(b1-3)Gal(b1-4)GlcNAc(b1-2)Man(a1-3)]Man(b1-4)GlcNAc(b1-4)GlcNAc
Summary of the method: as §1

[5] = target: GlcNAc(b1-3)Gal(b1-4)GlcNAc(b1-3)Gal(b1-4)GlcNAc
Summary of the method: as §1

[6] = target: GlcNAc(b1-3)Gal(b1-4)GlcNAc(b1-3)Gal(b1-4)GlcNAc(b1-2)Man(a1-3)[GlcNAc(b1-3)Gal(b1-4)GlcNAc(b1-3)Gal(b1-4)GlcNAc(b1-2)Man(a1-6)]Man(b1-4)GlcNAc(b1-4)GlcNAc
Summary of the method: as §1

[7] = target: GlcNAc(b1-3)Gal(b1-4)GlcNAc(b1-3)Gal(b1-4)GlcNAc(b1-2)Man(a1-3)[GlcNAc(b1-3)Gal(b1-4)GlcNAc(b1-3)Gal(b1-4)GlcNAc(b1-2)Man(a1-6)]Man(b1-4)GlcNAc(b1-4)[Fuc(a1-6)]GlcNAc
Summary of the method: as §1

[8] = target: GlcNAc(b1-3)Gal(b1-4)GlcNAc(b1-3)Gal(b1-4)GlcNAc(b1-2)[GlcNAc(b1-3)Gal(b1-4)GlcNAc(b1-3)Gal(b1-4)GlcNAc(b1-6)]Man(a1-6)[GlcNAc(b1-3)Gal(b1-4)GlcNAc(b1-3)Gal(b1-4)GlcNAc(b1-2)Man(a1-3)]Man(b1-4)GlcNAc(b1-4)[Fuc(a1-6)]GlcNAc
Summary of the method: as §1

[9] = target: GlcNAc(b1-3)Gal(b1-4)GlcNAc(b1-3)Gal(b1-4)GlcNAc(b1-3)Gal(b1-4)GlcNAc(b1-2)Man(a1-3)[GlcNAc(b1-3)Gal(b1-4)GlcNAc(b1-3)Gal(b1-4)GlcNAc(b1-3)Gal(b1-4)GlcNAc(b1-2)Man(a1-6)]Man(b1-4)GlcNAc(b1-4)GlcNAc
Summary of the method: as §1

[10] = target: GlcNAc(b1-3)Gal(b1-4)GlcNAc(b1-3)Gal(b1-4)GlcNAc(b1-3)Gal(b1-4)GlcNAc(b1-2)Man(a1-3)[GlcNAc(b1-3)Gal(b1-4)GlcNAc(b1-3)Gal(b1-4)GlcNAc(b1-3)Gal(b1-4)GlcNAc(b1-2)Man(a1-6)]Man(b1-4)GlcNAc(b1-4)[Fuc(a1-6)]GlcNAc
Summary of the method: as §1

[11] = target: GlcNAc(b1-3)Gal(b1-4)GlcNAc(b1-3)Gal(b1-4)GlcNAc(b1-3)Gal(b1-4)GlcNAc(b1-2)[GlcNAc(b1-3)Gal(b1-4)GlcNAc(b1-3)Gal(b1-4)GlcNAc(b1-3)Gal(b1-4)GlcNAc(b1-6)]Man(a1-6)[GlcNAc(b1-3)Gal(b1-4)GlcNAc(b1-3)Gal(b1-4)GlcNAc(b1-3)Gal(b1-4)GlcNAc(b1-2)Man(a1-3)]Man(b1-4)GlcNAc(b1-4)[Fuc(a1-6)]GlcNAc
Summary of the method: as §1

[12] = target: GlcNAc(b1-3)Gal(b1-4)GlcNAc(b1-3)Gal(b1-4)GlcNAc(b1-3)Gal(b1-4)GlcNAc(b1-3)Gal(b1-4)GlcNAc(b1-2)Man(a1-3)[GlcNAc(b1-3)Gal(b1-4)GlcNAc(b1-3)Gal(b1-4)GlcNAc(b1-3)Gal(b1-4)GlcNAc(b1-3)Gal(b1-4)GlcNAc(b1-2)Man(a1-6)]Man(b1-4)GlcNAc(b1-4)GlcNAc
Summary of the method: as §1

[13] = target: GlcNAc(b1-3)Gal(b1-4)GlcNAc(b1-3)Gal(b1-4)GlcNAc(b1-3)Gal(b1-4)GlcNAc(b1-3)Gal(b1-4)GlcNAc(b1-2)Man(a1-3)[GlcNAc(b1-3)Gal(b1-4)GlcNAc(b1-3)Gal(b1-4)GlcNAc(b1-3)Gal(b1-4)GlcNAc(b1-3)Gal(b1-4)GlcNAc(b1-2)Man(a1-6)]Man(b1-4)GlcNAc(b1-4)[Fuc(a1-6)]GlcNAc
Summary of the method: as §1

[14] = target: GlcNAc(b1-3)Gal(b1-4)GlcNAc(b1-3)Gal(b1-4)GlcNAc(b1-3)Gal(b1-4)GlcNAc(b1-3)Gal(b1-4)GlcNAc(b1-2)[GlcNAc(b1-3)Gal(b1-4)GlcNAc(b1-3)Gal(b1-4)GlcNAc(b1-3)Gal(b1-4)GlcNAc(b1-3)Gal(b1-4)GlcNAc(b1-6)]Man(a1-6)[GlcNAc(b1-3)Gal(b1-4)GlcNAc(b1-3)Gal(b1-4)GlcNAc(b1-3)Gal(b1-4)GlcNAc(b1-3)Gal(b1-4)GlcNAc(b1-2)Man(a1-3)]Man(b1-4)GlcNAc(b1-4)[Fuc(a1-6)]GlcNAc
Summary of the method: as §1

[15] = target: GlcNAc(b1-3)Gal(b1-4)GlcNAc(b1-3)Gal(b1-4)GlcNAc(b1-3)GalNAc
Summary of the method: as §1

[16] = target: GlcNAc(b1-3)Gal(b1-4)GlcNAc(b1-3)GalNAc
Summary of the method: as §1

[17] = target: GlcNAc(b1-3)Gal(b1-4)GlcNAc(b1-3)[GlcNAc(b1-3)Gal(b1-4)GlcNAc(b1-3)]GalNAc
Summary of the method: as §1

[18] = target: GlcNAc(b1-3)Gal(b1-4)GlcNAc(b1-6)[Gal(b1-3)]GalNAc
Summary of the method: as §1

[19] = target: GlcNAc(b1-3)Gal(b1-4)GlcNAc(b1-6)[GlcNAc(b1-3)Gal(b1-3)]GalNAc
Summary of the method: as §1

[20] = target: GlcNAc(b1-3)Gal(b1-4)GlcNAc(b1-6)[GlcNAc(b1-3)]Gal(b1-4)GlcNAc
Summary of the method: as §1

GlcNAc(b1-3)GalNAc = target: GlcNAc(b1-3)GalNAc
Summary of the method: as §1

GlcNAc(b1-3)Man = target: GlcNAc(b1-3)Man
Summary of the method: as §1

[21] = target: GlcNAc(b1-3)[GlcNAc(b1-4)][GlcNAc(b1-6)]GlcNAc
Summary of the method: as §1

[22] = target: GlcNAc(b1-3)[GlcNAc(b1-6)]Gal(b1-4)GlcNAc
Summary of the method: as §1

[23] = target: GlcNAc(b1-3)[GlcNAc(b1-6)]GalNAc
Summary of the method: as §1

[24] = target: GlcNAc(b1-4)Gal(b1-4)GlcNAc
Summary of the method: as §1

GlcNAc(b1-4)GlcNAc = target: GlcNAc(b1-4)GlcNAc
Summary of the method: as §1

[25] = target: GlcNAc(b1-4)GlcNAc(b1-4)GlcNAc
Summary of the method: as §1

[26] = target: GlcNAc(b1-4)GlcNAc(b1-4)GlcNAc(b1-4)GlcNAc(b1-4)GlcNAc
Summary of the method: as §1

[27] = target: GlcNAc(b1-4)GlcNAc(b1-4)GlcNAc(b1-4)GlcNAc(b1-4)GlcNAc(b1-4)GlcNAc
Summary of the method: as §1

[28] = target: GlcNAc(b1-4)[GlcNAc(b1-6)]GalNAc
Summary of the method: as §1

[29] = target: GlcNAc(b1-6)Gal(b1-4)GlcNAc
Summary of the method: as §1

GlcNAc(b1-6)GalNAc = target: GlcNAc(b1-6)GalNAc
Summary of the method: as §1

[30] = target: GlcNAc6S(b1-3)Gal(b1-4)GlcNAc
Summary of the method: as §1

Kdn(a2-3)Gal(b1-3)GalNAc = target: Kdn(a2-3)Gal(b1-3)GalNAc
Summary of the method: as §1

Kdn(a2-3)Gal(b1-3)GlcNAc = target: Kdn(a2-3)Gal(b1-3)GlcNAc
Summary of the method: as §1

B1: AntigenI/IIA3VP1 (Streptococcus mutans), C9E3B4 (protein)
chain: AANEADYQAKLTAYQTELARVQKANADAKAAYEAAVAANNAANAALTAENTAIKKRNADAKADYEAKLAKYQADLAKYQKDLADYPVKLKAYEDEQASIKAALAELEKHKNEDGNLTEPSAQNLVYDLEPNANLSLTTDGKFLKASAVDDAFSKSTSKAKYDQKILQLDDLDITNLEQSNDVASSMELYGNFGDKAGWSTTVSNNSQVKWGSVLLERGQSATATYTNLQNSYYNGKKISKIVYKYTVDPKSKFQGQKVWLGIFTDPTLGVFASAYTGQVEKNTSIFIKNEFTFYDEDGKPINFDNALLSVASLNREHNSIEMAKDYSGKFVKISGSSIGEKNGMIYATDTLNFKQGEGGSRWTMYKNSQAGSGWDSSDAPNSWYGAGAIKMSGPNNYVTVGATSATNVMPVSDMPVVPGKDNTDGKKPNIWYSLNGKIRAVNVPKVTKEKPTPPVKPTAPTKPTYETEKPLKPAPVAPNYEKEPTPPTRLEHHHHHH
- glycan array binding signal (z-score) (GlcNAc(b1-3)Gal(b1-4)Glc): -1.25
- glycan array binding signal (z-score) [1]: 0.116
- glycan array binding signal (z-score) [2]: -0.32
- glycan array binding signal (z-score) [3]: 0.425
- glycan array binding signal (z-score) [4]: 0.979
- glycan array binding signal (z-score) [5]: -0.33
- glycan array binding signal (z-score) [6]: 2.19
- glycan array binding signal (z-score) [7]: 0.478
- glycan array binding signal (z-score) [8]: -0.456
- glycan array binding signal (z-score) [9]: -0.017
- glycan array binding signal (z-score) [10]: 0.51
- glycan array binding signal (z-score) [11]: 1.96
- glycan array binding signal (z-score) [12]: 1.13
- glycan array binding signal (z-score) [13]: 3.23
- glycan array binding signal (z-score) [14]: 0.602
- glycan array binding signal (z-score) [15]: -1
- glycan array binding signal (z-score) [16]: -0.624
- glycan array binding signal (z-score) [17]: -0.582
- glycan array binding signal (z-score) [18]: -0.907
- glycan array binding signal (z-score) [19]: 0.271
- glycan array binding signal (z-score) [20]: -0.012
- glycan array binding signal (z-score) (GlcNAc(b1-3)GalNAc): -0.71
- glycan array binding signal (z-score) (GlcNAc(b1-3)Man): -1.03
- glycan array binding signal (z-score) [21]: -0.954
- glycan array binding signal (z-score) [22]: -1.18
- glycan array binding signal (z-score) [23]: -0.557
- glycan array binding signal (z-score) [24]: -0.562
- glycan array binding signal (z-score) (GlcNAc(b1-4)GlcNAc): 0.035
- glycan array binding signal (z-score) [25]: 0.168
- glycan array binding signal (z-score) [26]: 0.052
- glycan array binding signal (z-score) [27]: -0.58
- glycan array binding signal (z-score) [28]: -0.643
- glycan array binding signal (z-score) [29]: -0.001
- glycan array binding signal (z-score) (GlcNAc(b1-6)GalNAc): -0.655
- glycan array binding signal (z-score) [30]: 0.77
- glycan array binding signal (z-score) (Kdn(a2-3)Gal(b1-3)GalNAc): 0.902
- glycan array binding signal (z-score) (Kdn(a2-3)Gal(b1-3)GlcNAc): 0.432
